PubChem BioAssay AID1508597 – Cure First | 2020

- Aim: 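Survival screen with siRNA in ovarian cancer cells derived from patients, with or without rucaparib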 (primary screen)
- Cells: human ovarian carcinoma lines grown from tumours: OCI-P5x (papillary serous) and OCI-C5x (clear cell)
- Knock-down reagent: siRNA pool against human genes, 1.25 pmol siRNA per well
- Time to read-out: 72 h or 96 h, depending on the cell culture
- Conditions: rucaparib 20 µM (about IC30) or vehicle, present until read-out
- Measurement: 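ATP luminescence measured at 72 or 96 h according to the culture, then normalised and expressed as percent viability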
- Reading the numbers: viability, normalised: higher = more viable cells remaining
- Active means: 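a well counts as a hit if its normalised viability is under 80 percent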
- Meaning of the calls: active = viability under 80%; inactive = viability 80% or more
The whole screen tested about 2,100 reagents; shown is an unselected part. 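Calls flag viability under 80% in either arm, not effects specific to rucaparib; the reference for percent is not stated.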 A number with no mark means an inactive call. Not stated in the record: the 100% reference.

gene	PubChem SID	rucaparib or vehicle	cell line	technical replicate	viability, normalised (%)
ZSCAN21 (GeneID 7589)	SID405526327	Rucaparib	OCI-C5x (clear cell)	1	66.4 (active)
ZSCAN21 (GeneID 7589)	SID405526327	Rucaparib	OCI-C5x (clear cell)	2	64.7 (active)
ZSCAN21 (GeneID 7589)	SID405526327	Rucaparib	OCI-C5x (clear cell)	3	57.2 (active)
ZSCAN21 (GeneID 7589)	SID405526327	Rucaparib	OCI-P5x (serous)	1	96.9
ZSCAN21 (GeneID 7589)	SID405526327	Rucaparib	OCI-P5x (serous)	2	91.3
ZSCAN21 (GeneID 7589)	SID405526327	Rucaparib	OCI-P5x (serous)	3	93.9
ZSCAN21 (GeneID 7589)	SID405526327	Vehicle	OCI-C5x (clear cell)	1	74.4 (active)
ZSCAN21 (GeneID 7589)	SID405526327	Vehicle	OCI-C5x (clear cell)	2	63.8 (active)
ZSCAN21 (GeneID 7589)	SID405526327	Vehicle	OCI-C5x (clear cell)	3	65.1 (active)
ZSCAN21 (GeneID 7589)	SID405526327	Vehicle	OCI-P5x (serous)	1	89.6
ZSCAN21 (GeneID 7589)	SID405526327	Vehicle	OCI-P5x (serous)	2	84.7
ZSCAN21 (GeneID 7589)	SID405526327	Vehicle	OCI-P5x (serous)	3	83.1
RIPK3 (GeneID 11035)	SID405527682	Rucaparib	OCI-C5x (clear cell)	1	69.6 (active)
RIPK3 (GeneID 11035)	SID405527682	Rucaparib	OCI-C5x (clear cell)	2	68.9 (active)
RIPK3 (GeneID 11035)	SID405527682	Rucaparib	OCI-C5x (clear cell)	3	63.8 (active)
RIPK3 (GeneID 11035)	SID405527682	Rucaparib	OCI-P5x (serous)	1	99.1
RIPK3 (GeneID 11035)	SID405527682	Rucaparib	OCI-P5x (serous)	2	96.7
RIPK3 (GeneID 11035)	SID405527682	Rucaparib	OCI-P5x (serous)	3	55.9 (active)
RIPK3 (GeneID 11035)	SID405527682	Vehicle	OCI-C5x (clear cell)	1	55.4 (active)
RIPK3 (GeneID 11035)	SID405527682	Vehicle	OCI-C5x (clear cell)	2	54.2 (active)
RIPK3 (GeneID 11035)	SID405527682	Vehicle	OCI-C5x (clear cell)	3	44.6 (active)
RIPK3 (GeneID 11035)	SID405527682	Vehicle	OCI-P5x (serous)	1	92.9
RIPK3 (GeneID 11035)	SID405527682	Vehicle	OCI-P5x (serous)	2	78.6 (active)
RIPK3 (GeneID 11035)	SID405527682	Vehicle	OCI-P5x (serous)	3	73.8 (active)
ADCK2 (GeneID 90956)	SID405527832	Rucaparib	OCI-C5x (clear cell)	1	88
ADCK2 (GeneID 90956)	SID405527832	Rucaparib	OCI-C5x (clear cell)	2	61.9 (active)
ADCK2 (GeneID 90956)	SID405527832	Rucaparib	OCI-C5x (clear cell)	3	77.4 (active)
ADCK2 (GeneID 90956)	SID405527832	Rucaparib	OCI-P5x (serous)	1	115
ADCK2 (GeneID 90956)	SID405527832	Rucaparib	OCI-P5x (serous)	2	110
ADCK2 (GeneID 90956)	SID405527832	Rucaparib	OCI-P5x (serous)	3	96.7
ADCK2 (GeneID 90956)	SID405527832	Vehicle	OCI-C5x (clear cell)	1	58.8 (active)
ADCK2 (GeneID 90956)	SID405527832	Vehicle	OCI-C5x (clear cell)	2	71.3 (active)
ADCK2 (GeneID 90956)	SID405527832	Vehicle	OCI-C5x (clear cell)	3	51.8 (active)
ADCK2 (GeneID 90956)	SID405527832	Vehicle	OCI-P5x (serous)	1	86.6
ADCK2 (GeneID 90956)	SID405527832	Vehicle	OCI-P5x (serous)	2	77.5 (active)
ADCK2 (GeneID 90956)	SID405527832	Vehicle	OCI-P5x (serous)	3	67.9 (active)
MARK1 (GeneID 4139)	SID405527665	Rucaparib	OCI-C5x (clear cell)	1	48.9 (active)
MARK1 (GeneID 4139)	SID405527665	Rucaparib	OCI-C5x (clear cell)	2	61.9 (active)
MARK1 (GeneID 4139)	SID405527665	Rucaparib	OCI-C5x (clear cell)	3	44 (active)
MARK1 (GeneID 4139)	SID405527665	Rucaparib	OCI-P5x (serous)	1	68.5 (active)
MARK1 (GeneID 4139)	SID405527665	Rucaparib	OCI-P5x (serous)	2	68.4 (active)
MARK1 (GeneID 4139)	SID405527665	Rucaparib	OCI-P5x (serous)	3	61.9 (active)
MARK1 (GeneID 4139)	SID405527665	Vehicle	OCI-C5x (clear cell)	1	50.1 (active)
MARK1 (GeneID 4139)	SID405527665	Vehicle	OCI-C5x (clear cell)	2	76.7 (active)
MARK1 (GeneID 4139)	SID405527665	Vehicle	OCI-C5x (clear cell)	3	76.3 (active)
MARK1 (GeneID 4139)	SID405527665	Vehicle	OCI-P5x (serous)	1	66.7 (active)
MARK1 (GeneID 4139)	SID405527665	Vehicle	OCI-P5x (serous)	2	59.8 (active)
MARK1 (GeneID 4139)	SID405527665	Vehicle	OCI-P5x (serous)	3	59 (active)
TOP1 (GeneID 7150)	SID405528377	Rucaparib	OCI-C5x (clear cell)	1	62.6 (active)
TOP1 (GeneID 7150)	SID405528377	Rucaparib	OCI-C5x (clear cell)	2	83.7
TOP1 (GeneID 7150)	SID405528377	Rucaparib	OCI-C5x (clear cell)	3	54.4 (active)
TOP1 (GeneID 7150)	SID405528377	Rucaparib	OCI-P5x (serous)	1	75.9 (active)
TOP1 (GeneID 7150)	SID405528377	Rucaparib	OCI-P5x (serous)	2	56.8 (active)
TOP1 (GeneID 7150)	SID405528377	Rucaparib	OCI-P5x (serous)	3	66 (active)
TOP1 (GeneID 7150)	SID405528377	Vehicle	OCI-C5x (clear cell)	1	62.9 (active)
TOP1 (GeneID 7150)	SID405528377	Vehicle	OCI-C5x (clear cell)	2	61 (active)
TOP1 (GeneID 7150)	SID405528377	Vehicle	OCI-C5x (clear cell)	3	46.6 (active)
TOP1 (GeneID 7150)	SID405528377	Vehicle	OCI-P5x (serous)	1	70 (active)
TOP1 (GeneID 7150)	SID405528377	Vehicle	OCI-P5x (serous)	2	77.8 (active)
TOP1 (GeneID 7150)	SID405528377	Vehicle	OCI-P5x (serous)	3	52.8 (active)
